These are yes or no findings as the source states them, for the method shown. Binding seen in cells or lysates may run through a third protein. Tags and fused reporters may be left off the sequences shown.
Target: T1, myc-AAMP (Angio-associated migratory cell protein) (human) (UniProt Q13685)
T1 sequence: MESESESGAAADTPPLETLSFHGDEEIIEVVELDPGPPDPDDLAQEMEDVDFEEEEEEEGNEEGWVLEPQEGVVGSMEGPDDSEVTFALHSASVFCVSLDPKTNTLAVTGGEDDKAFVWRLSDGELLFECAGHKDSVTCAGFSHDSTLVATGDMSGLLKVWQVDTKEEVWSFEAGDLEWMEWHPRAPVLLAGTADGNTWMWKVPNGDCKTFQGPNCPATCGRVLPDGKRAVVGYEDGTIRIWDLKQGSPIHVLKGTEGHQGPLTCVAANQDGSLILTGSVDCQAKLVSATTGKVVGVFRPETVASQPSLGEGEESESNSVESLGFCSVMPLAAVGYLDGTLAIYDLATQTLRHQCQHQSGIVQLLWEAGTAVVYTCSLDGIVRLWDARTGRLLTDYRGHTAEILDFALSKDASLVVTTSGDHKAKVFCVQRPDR
Test: co-IP; myc-co-IP from HUVECs transduced with AAMP lentivirus and treated with doxycycline for 24 h; Western blot of the precipitate

By UniProt entry, the sequences of proteins in these tests, tags left out.
UniProt Q14247: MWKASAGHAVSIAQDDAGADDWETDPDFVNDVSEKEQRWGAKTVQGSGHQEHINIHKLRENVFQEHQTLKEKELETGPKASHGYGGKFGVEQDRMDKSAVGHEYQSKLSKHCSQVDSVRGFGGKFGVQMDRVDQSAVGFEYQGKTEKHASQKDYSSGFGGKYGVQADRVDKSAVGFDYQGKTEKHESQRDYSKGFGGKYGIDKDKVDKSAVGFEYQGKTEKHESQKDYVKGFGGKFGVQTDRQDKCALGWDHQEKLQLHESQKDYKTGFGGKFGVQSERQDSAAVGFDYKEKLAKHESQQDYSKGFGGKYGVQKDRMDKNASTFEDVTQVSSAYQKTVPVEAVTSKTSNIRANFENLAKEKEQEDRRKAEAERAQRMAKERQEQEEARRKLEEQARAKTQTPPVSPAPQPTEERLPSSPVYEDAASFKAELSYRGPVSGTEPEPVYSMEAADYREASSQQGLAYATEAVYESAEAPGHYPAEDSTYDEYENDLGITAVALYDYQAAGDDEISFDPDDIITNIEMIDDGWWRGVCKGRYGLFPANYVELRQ

cortactin (from UniProt Q14247 1-550)
binding: no binding
